Laboratory results from article PMC9715652, “Structural insights into mechanism and specificity of the plant protein O-fucosyltransferase SPINDLY” (Nature Communications, 2022).
These are yes or no findings as the source states them, for the method shown. For part of these data: In cells and extracts the contact can be indirect. Some entries that bind do so weakly or less than the wild type. For part of these data: Sequences can lack the tags named with a protein.

T1: SPY^WT, GST-tagged and 6His-SUMO-tagged copies co-expressed (Arabidopsis thaliana) (UniProt Q96301)
T1 sequence: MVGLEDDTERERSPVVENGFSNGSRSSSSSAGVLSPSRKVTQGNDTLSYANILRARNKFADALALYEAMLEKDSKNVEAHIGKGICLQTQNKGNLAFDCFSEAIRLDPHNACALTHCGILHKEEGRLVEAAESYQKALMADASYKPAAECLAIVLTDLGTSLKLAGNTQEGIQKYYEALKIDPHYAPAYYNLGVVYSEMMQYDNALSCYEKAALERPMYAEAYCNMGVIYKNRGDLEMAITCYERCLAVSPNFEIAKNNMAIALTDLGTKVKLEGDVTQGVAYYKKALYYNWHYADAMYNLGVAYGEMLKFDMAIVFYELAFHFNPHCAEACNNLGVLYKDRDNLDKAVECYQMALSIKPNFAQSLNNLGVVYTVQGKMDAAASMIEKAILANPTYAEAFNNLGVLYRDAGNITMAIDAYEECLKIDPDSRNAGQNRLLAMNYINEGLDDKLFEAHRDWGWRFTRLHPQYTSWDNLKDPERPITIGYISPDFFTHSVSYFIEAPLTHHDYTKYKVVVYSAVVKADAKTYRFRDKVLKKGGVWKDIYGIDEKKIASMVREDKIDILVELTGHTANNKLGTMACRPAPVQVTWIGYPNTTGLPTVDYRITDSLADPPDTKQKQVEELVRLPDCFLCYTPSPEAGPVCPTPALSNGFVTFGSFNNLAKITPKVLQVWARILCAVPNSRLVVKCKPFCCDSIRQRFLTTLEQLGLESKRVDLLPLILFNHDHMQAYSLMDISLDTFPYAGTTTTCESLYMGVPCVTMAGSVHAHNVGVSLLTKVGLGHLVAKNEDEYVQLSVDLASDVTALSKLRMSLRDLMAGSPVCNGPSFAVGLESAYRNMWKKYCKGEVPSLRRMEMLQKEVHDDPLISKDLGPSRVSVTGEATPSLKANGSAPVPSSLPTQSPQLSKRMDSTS

T2: Arabidopsis SPINDLY (SPY), wild type, full-length (Arabidopsis thaliana) (UniProt Q96301)
T2 sequence: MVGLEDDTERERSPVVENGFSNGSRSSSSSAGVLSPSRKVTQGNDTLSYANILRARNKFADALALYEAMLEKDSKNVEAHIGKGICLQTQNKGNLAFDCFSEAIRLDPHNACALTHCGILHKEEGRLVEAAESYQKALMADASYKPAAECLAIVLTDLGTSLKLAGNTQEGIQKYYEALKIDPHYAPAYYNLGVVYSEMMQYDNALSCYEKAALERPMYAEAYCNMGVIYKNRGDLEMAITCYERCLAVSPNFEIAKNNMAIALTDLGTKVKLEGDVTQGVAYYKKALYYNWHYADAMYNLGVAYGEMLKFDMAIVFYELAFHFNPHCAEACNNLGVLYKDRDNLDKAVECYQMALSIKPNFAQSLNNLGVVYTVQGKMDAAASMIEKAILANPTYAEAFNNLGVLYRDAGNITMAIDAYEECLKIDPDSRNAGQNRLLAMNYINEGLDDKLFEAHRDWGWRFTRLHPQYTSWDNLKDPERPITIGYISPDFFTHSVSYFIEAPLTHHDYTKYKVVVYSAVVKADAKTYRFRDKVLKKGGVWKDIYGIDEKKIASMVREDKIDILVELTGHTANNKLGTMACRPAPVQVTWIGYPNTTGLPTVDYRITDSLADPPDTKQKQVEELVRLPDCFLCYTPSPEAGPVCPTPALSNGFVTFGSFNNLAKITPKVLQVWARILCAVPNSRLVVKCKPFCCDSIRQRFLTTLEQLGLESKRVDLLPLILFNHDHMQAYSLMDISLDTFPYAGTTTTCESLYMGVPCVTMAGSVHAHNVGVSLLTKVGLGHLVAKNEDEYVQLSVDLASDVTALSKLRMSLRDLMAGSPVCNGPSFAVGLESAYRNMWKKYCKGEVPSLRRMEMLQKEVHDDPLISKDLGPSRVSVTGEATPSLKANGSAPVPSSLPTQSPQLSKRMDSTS


How the values were obtained:
[1] = target: T1, SPY^WT, GST-tagged and 6His-SUMO-tagged copies co-expressed (Arabidopsis thaliana); experiment: pull-down; tandem affinity co-purification: 6His-SUMO-tagged SPY co-expressed with GST-tagged SPY^WT in E. coli, GST affinity purification followed by Ni2+ affinity purification
[2] = target: T2, Arabidopsis SPINDLY (SPY), wild type, full-length (Arabidopsis thaliana); experiment: SEC; Superdex 200 Increase 10/300 GL, 0.5 mL injected; 50 mM Tris pH 7.9, 300 mM NaCl, 0.5 mM TCEP, 2 mM benzamidine; samples incubated at 4 °C for 6 h; peak fractions on SDS-PAGE; both purified

binding [1]	binding [2]	Binder
binds		SPY^WT, GST-tagged and 6His-SUMO-tagged copies co-expressed (enzyme, UniProt Q96301 1-914) MVGLEDDTERERSPVVENGFSNGSRSSSSSAGVLSPSRKVTQGNDTLSYANILRARNKFADALALYEAMLEKDSKNVEAHIGKGICLQTQNKGNLAFDCFSEAIRLDPHNACALTHCGILHKEEGRLVEAAESYQKALMADASYKPAAECLAIVLTDLGTSLKLAGNTQEGIQKYYEALKIDPHYAPAYYNLGVVYSEMMQYDNALSCYEKAALERPMYAEAYCNMGVIYKNRGDLEMAITCYERCLAVSPNFEIAKNNMAIALTDLGTKVKLEGDVTQGVAYYKKALYYNWHYADAMYNLGVAYGEMLKFDMAIVFYELAFHFNPHCAEACNNLGVLYKDRDNLDKAVECYQMALSIKPNFAQSLNNLGVVYTVQGKMDAAASMIEKAILANPTYAEAFNNLGVLYRDAGNITMAIDAYEECLKIDPDSRNAGQNRLLAMNYINEGLDDKLFEAHRDWGWRFTRLHPQYTSWDNLKDPERPITIGYISPDFFTHSVSYFIEAPLTHHDYTKYKVVVYSAVVKADAKTYRFRDKVLKKGGVWKDIYGIDEKKIASMVREDKIDILVELTGHTANNKLGTMACRPAPVQVTWIGYPNTTGLPTVDYRITDSLADPPDTKQKQVEELVRLPDCFLCYTPSPEAGPVCPTPALSNGFVTFGSFNNLAKITPKVLQVWARILCAVPNSRLVVKCKPFCCDSIRQRFLTTLEQLGLESKRVDLLPLILFNHDHMQAYSLMDISLDTFPYAGTTTTCESLYMGVPCVTMAGSVHAHNVGVSLLTKVGLGHLVAKNEDEYVQLSVDLASDVTALSKLRMSLRDLMAGSPVCNGPSFAVGLESAYRNMWKKYCKGEVPSLRRMEMLQKEVHDDPLISKDLGPSRVSVTGEATPSLKANGSAPVPSSLPTQSPQLSKRMDSTS
binds		6His-SUMO-tagged SPY^K665A (enzyme, UniProt Q96301 1-914) MVGLEDDTERERSPVVENGFSNGSRSSSSSAGVLSPSRKVTQGNDTLSYANILRARNKFADALALYEAMLEKDSKNVEAHIGKGICLQTQNKGNLAFDCFSEAIRLDPHNACALTHCGILHKEEGRLVEAAESYQKALMADASYKPAAECLAIVLTDLGTSLKLAGNTQEGIQKYYEALKIDPHYAPAYYNLGVVYSEMMQYDNALSCYEKAALERPMYAEAYCNMGVIYKNRGDLEMAITCYERCLAVSPNFEIAKNNMAIALTDLGTKVKLEGDVTQGVAYYKKALYYNWHYADAMYNLGVAYGEMLKFDMAIVFYELAFHFNPHCAEACNNLGVLYKDRDNLDKAVECYQMALSIKPNFAQSLNNLGVVYTVQGKMDAAASMIEKAILANPTYAEAFNNLGVLYRDAGNITMAIDAYEECLKIDPDSRNAGQNRLLAMNYINEGLDDKLFEAHRDWGWRFTRLHPQYTSWDNLKDPERPITIGYISPDFFTHSVSYFIEAPLTHHDYTKYKVVVYSAVVKADAKTYRFRDKVLKKGGVWKDIYGIDEKKIASMVREDKIDILVELTGHTANNKLGTMACRPAPVQVTWIGYPNTTGLPTVDYRITDSLADPPDTKQKQVEELVRLPDCFLCYTPSPEAGPVCPTPALSNGFVTFGSFNNLAAITPKVLQVWARILCAVPNSRLVVKCKPFCCDSIRQRFLTTLEQLGLESKRVDLLPLILFNHDHMQAYSLMDISLDTFPYAGTTTTCESLYMGVPCVTMAGSVHAHNVGVSLLTKVGLGHLVAKNEDEYVQLSVDLASDVTALSKLRMSLRDLMAGSPVCNGPSFAVGLESAYRNMWKKYCKGEVPSLRRMEMLQKEVHDDPLISKDLGPSRVSVTGEATPSLKANGSAPVPSSLPTQSPQLSKRMDSTS
	no binding	Arabidopsis DELLA truncation covering the SPY-targeting region (DELLA^1–205) (domain or fragment, UniProt Q9SLH3 1-205) MKRDHHQFQGRLSNHGTSSSSSSISKDKMMMVKKEEDGGGNMDDELLAVLGYKVRSSEMAEVALKLEQLETMMSNVQEDGLSHLATDTVHYNPSELYSWLDNMLSELNPPPLPASSNGLDPVLPSPEICGFPASDYDLKVIPGNAIYQFPAIDSSSSSNNQNKRLKSCSSPDSMVTSTSTGTQIGGVIGTTVTTTTTTTTAAGES
